Assay [1] deals with Myc-tagged IQGAP3 (UniProt Q86VI3). Description: co-IP; IP of Myc-tagged IQGAP3 in WT and IFFO1-/- NCI-H1299 cells; blot for Cdc42.
Assay [2] has the same target. Description: co-IP; IP of Myc-tagged IQGAP3 in IFFO1-/- cells with re-expression of increasing amounts of Flag-IFFO1; blot for Cdc42.
Assay [3] has as its target Flag-tagged IFFO1 (full-length) (UniProt Q0D2I5). Description: co-IP; Flag-IFFO1 immunoprecipitated on anti-Flag affinity gel from NTEN lysate (150 mM NaCl, 0.5% NP40), overnight; Western blot of the co-precipitated proteins. Background: A western blot detects proteins with antibodies after separation by electrophoresis.
The target of assay [4] is Myc-tagged IQGAP3 (UniProt Q86VI3). Description: co-IP; IP of overexpressed Myc-tagged IQGAP3; blot for IFFO1.
Assay [5] addresses Flag-tagged IFFO1 (full-length) (UniProt Q0D2I5). In words: co-IP; full-length IFFO1 and its truncated mutants expressed in IFFO1-/- cells; IP and blot for IQGAP3.
The target is the same in assay [6]. In words: co-IP; Flag-IFFO1 and Myc-IQGAP3 expressed together in IFFO1-/- NCI-H1299 cells.

The chains behind the UniProt entries cited, without tags or fusion partners.
UniProt Q86VI3: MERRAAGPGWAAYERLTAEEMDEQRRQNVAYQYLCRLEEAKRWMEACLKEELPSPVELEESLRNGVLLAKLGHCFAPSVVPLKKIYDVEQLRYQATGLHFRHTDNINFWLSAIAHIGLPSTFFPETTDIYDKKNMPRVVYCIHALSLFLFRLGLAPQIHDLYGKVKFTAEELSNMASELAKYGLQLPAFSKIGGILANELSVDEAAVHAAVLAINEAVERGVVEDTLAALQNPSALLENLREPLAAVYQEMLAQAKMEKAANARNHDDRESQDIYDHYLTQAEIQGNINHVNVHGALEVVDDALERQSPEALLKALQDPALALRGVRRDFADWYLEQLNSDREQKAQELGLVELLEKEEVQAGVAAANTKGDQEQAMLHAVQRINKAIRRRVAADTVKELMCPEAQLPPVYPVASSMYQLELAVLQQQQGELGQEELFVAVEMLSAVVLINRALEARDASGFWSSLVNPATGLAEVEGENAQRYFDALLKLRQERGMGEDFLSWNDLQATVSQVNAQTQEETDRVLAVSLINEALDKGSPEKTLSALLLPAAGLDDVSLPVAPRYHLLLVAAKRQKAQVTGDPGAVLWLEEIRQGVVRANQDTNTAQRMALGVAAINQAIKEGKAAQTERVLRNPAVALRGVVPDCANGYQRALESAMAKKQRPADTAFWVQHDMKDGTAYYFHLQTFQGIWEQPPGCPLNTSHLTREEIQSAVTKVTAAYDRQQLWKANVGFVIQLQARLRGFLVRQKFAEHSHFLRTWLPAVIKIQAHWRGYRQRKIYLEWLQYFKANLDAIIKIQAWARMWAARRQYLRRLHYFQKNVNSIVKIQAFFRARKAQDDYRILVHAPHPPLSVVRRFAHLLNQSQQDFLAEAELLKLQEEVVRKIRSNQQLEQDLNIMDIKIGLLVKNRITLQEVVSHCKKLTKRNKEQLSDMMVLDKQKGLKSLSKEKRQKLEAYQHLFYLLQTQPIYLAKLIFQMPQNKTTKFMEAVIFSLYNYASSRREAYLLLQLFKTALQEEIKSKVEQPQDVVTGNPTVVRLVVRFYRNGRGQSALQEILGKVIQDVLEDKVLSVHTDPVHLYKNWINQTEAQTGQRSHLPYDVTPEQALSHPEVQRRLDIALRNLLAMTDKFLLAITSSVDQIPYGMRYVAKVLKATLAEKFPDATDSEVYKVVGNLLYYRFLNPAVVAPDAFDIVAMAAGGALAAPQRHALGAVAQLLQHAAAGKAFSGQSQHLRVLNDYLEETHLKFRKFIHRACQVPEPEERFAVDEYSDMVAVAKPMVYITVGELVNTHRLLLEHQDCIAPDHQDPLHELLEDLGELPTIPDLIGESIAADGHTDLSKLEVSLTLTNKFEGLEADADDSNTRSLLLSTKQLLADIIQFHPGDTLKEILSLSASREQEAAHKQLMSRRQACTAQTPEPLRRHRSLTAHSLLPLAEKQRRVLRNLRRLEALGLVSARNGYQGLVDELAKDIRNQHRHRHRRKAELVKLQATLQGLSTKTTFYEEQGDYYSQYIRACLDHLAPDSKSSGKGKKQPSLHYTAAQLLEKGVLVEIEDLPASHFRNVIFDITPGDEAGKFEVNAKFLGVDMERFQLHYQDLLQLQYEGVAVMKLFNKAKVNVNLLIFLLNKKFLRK
UniProt Q0D2I5: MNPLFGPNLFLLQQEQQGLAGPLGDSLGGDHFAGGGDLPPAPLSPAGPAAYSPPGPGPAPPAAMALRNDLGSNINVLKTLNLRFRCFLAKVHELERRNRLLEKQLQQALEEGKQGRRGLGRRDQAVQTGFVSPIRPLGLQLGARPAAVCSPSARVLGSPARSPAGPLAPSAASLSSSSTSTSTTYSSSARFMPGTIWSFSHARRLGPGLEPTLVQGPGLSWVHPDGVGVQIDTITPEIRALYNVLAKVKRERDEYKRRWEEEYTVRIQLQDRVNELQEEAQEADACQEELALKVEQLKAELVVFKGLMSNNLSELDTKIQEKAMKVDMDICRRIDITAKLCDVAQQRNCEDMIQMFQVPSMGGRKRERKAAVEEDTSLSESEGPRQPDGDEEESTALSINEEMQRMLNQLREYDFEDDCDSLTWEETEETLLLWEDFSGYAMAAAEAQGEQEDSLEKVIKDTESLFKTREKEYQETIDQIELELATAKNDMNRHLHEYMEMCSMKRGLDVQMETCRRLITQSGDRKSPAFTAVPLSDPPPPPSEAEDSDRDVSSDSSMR
UniProt P60953: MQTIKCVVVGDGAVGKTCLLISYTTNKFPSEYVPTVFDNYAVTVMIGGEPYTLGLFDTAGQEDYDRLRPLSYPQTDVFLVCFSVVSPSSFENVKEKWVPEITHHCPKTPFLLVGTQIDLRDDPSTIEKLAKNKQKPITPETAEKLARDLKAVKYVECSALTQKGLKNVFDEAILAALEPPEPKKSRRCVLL

No constants are given. Whether binding was seen depends on the method and setting. In cells and extracts the contact can be indirect. Some results given as binding are weak or reduced against the parent protein; the word gives no strength.

On to “Cdc42, endogenous (from UniProt P60953 1-191)”, for which the binding result is recorded as “binds” in assay [1], “binds” in assay [2] and “no binding” in assay [3]. “IFFO1 (construct or endogenous form not stated) (from UniProt Q0D2I5 1-559)”: in assay [4], the binding result is reported as “binds”. Consider “IQGAP3 (IQ motif-containing GTPase-activating protein 3), endogenous (from UniProt Q86VI3 1-1631)”, for which the binding result in assay [5] and in assay [3] was “binds” each time.

In the case of “Myc-tagged IQGAP3 (from UniProt Q86VI3 1-1631)”, the binding entry in assay [6] is listed as “binds”.

The values are drawn from publication PMC12241364.
